# Results are given in words; binding and its absence hold for the method and conditions named. In cells and extracts the contact can be indirect. Some binding calls cover weakened binding; strength is not graded here. Tags and fused reporters may be left off the sequences shown.
# T1: Tsa1 (S. cerevisiae 2-Cys peroxyredoxin) (S. cerevisiae) (UniProt P34760)
# T1 sequence (looked up): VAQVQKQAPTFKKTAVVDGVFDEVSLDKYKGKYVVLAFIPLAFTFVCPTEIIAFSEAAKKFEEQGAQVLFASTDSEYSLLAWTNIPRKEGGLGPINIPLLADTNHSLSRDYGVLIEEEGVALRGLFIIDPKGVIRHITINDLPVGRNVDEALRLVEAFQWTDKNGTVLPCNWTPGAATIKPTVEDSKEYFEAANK
# Assays:
# [1] = molecular target: T1, Tsa1 (S. cerevisiae 2-Cys peroxyredoxin) (S. cerevisiae); experiment: copurification on Ni-NTA, SDS-PAGE, Coomassie, MALDI-TOF (FIG. 7b)
# [2] = molecular target: T1, Tsa1 (S. cerevisiae 2-Cys peroxyredoxin) (S. cerevisiae); experiment: copurification with 6His-Srx1, MALDI-TOF of reduced and nonreduced bands (both proteins in the 55 kDa band)
binder,measurement,setting,value
6His-Srx1 (S. cerevisiae sulfiredoxin Srx1 with six histidines at its N-terminal end) (enzyme) HHHHHHMSLQSNSVKPTEIPLSEIRRPLAPVLDPQKIDAMVATMKGIPTASKTCSLEQAEAAASAGELPPVDVLGVRVKGQTLYYAFGGCHRLQAYDRRARETQNAAFPVRCRVLPATPRQIRMYLGSSLDIE,binding,[1],binds
same,binding,[2],binds

# From patent publication US20110189154A1
